Values quoted from earlier work as cited in US9718806B2, “Quinazoline inhibitors of activating mutant forms of epidermal growth factor receptor” (AstraZeneca AB, priority 2013, dated 2017).
Some of these results come from one statement about several compounds together.

Settings: treated NSCLC patients, literature reports; cited from earlier work

| SMILES | NSCLC patients with adverse effects such as skin rash and diarrhoea [%] |
| --- | --- |
| COc1cc2ncnc(Nc3ccc(F)c(Cl)c3)c2cc1NC(=O)/C=C/CN1CCCCC1 [dacomitinib] | > 90 |
| CN(C)C/C=C/C(=O)Nc1cc2c(Nc3ccc(F)c(Cl)c3)ncnc2cc1O[C@H]1CCOC1 [afatinib] | > 90 |
